From PMC5688130 come the findings set out here.

Test [1] has as its target human CDC73(1–100) (human) (UniProt Q6P1J9). The test is described as follows: SEC + AUC; sedimentation velocity at 20 °C, 60 krpm, 20 mM Tris pH7.5, 400 mM NaCl, A280 ~0.7; self-association of the fragment tested; both purified.
Test [2] concerns the target human CDC73(1–111) (human) (UniProt Q6P1J9). The description is as above.

These are yes or no findings as the source states them, for the method shown.

In the case of “human CDC73(1–100) (from UniProt Q6P1J9 1-100) (domain or fragment)”, the binding result in test [1] was “no binding (tested: A280 absorbance of ~0.7)”.
Consider “human CDC73(1–111) (from UniProt Q6P1J9 1-111) (domain or fragment)”, for which, in test [2], the binding entry is listed as “no binding (tested: A280 absorbance of ~0.7)”.
